# Assay results from PubChem BioAssay AID1487 (National Center for Advancing Translational Sciences (NCATS), 2009).
# Where “and” joins values, the source holds several entries; their conditions need not be identical. Equal entries are not always repeated. Some of the results follow. The main result of the screen is listed elsewhere. These columns were measured beside it and carry no call. Most of these compounds were active or inconclusive in the main read-out, so they are no random draw. Words in brackets tell the shape of the fitted curve; partial curves, single points and poor fits give uncertain potencies.
# Assay: qHTS Assay for Modulators of Lamin A Splicing
# Details: HeLa LMNA splicing GFP/RFP minigene ratio, 48 h
# In short: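 S3 HeLa stable clones carrying a lamin A-EGFP splicing minigene plus DsRed2 were seeded at 600 cells/well in Opti-MEM with 2% FBS, pin-dosed and incubated 48 h at 37°C. Acumen cytometry (488 nm) gave the GFP/RFP total-intensity ratio.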
# [1] = measured here: GFP splicing reporter channel
# [2] = measured here: RFP viability control channel
Structure (SMILES),AC50 [1],AC50 [2]
CC(C)(C)NCC(O)c1ccc(O)c(CO)c1 (stereo not given),"31.6 µM [falling, single point] and 6.31 µM [rising, partial curve, poor fit]",–
COc1ccc(NC(=O)c2ccco2)cc1NC(=O)c1ccc(Br)o1,"31.6 µM [rising, single point]","35.5 µM [rising, single point]"
CCC(C)n1c(-c2cc(OC)c(OC)c(OC)c2)nc2nc3ccccc3nc21 (stereo not given),–,"22.4 µM [rising, single point]"
Nc1ccc(C(=O)n2c3ccccc3c3ccccc32)cc1,"1.41 µM [falling, partial curve]",–
CC1CCN(c2ccc(-c3cccc(NS(=O)(=O)c4cccs4)c3)nn2)CC1,"0.447 µM [falling, full curve, poor fit]","0.631 µM [falling, full curve, poor fit]"
CCc1ccc(S(=O)(=O)/N=C2/C=C(Sc3ncn[nH]3)C(=O)c3ccccc32)cc1,"3.98 µM [falling, full curve]","4.47 µM [falling, full curve]"
CC(=O)N1CCC(C(=O)Nc2ccccc2)(N(Cc2ccccc2)C(=O)c2cccnc2)CC1,"2 µM [rising, single point]",–
COc1cc(CNc2nnnn2C)ccc1OCc1c(F)cccc1Cl,"0.0447 µM [rising, full curve, poor fit]",–
CS(=O)(=O)N(CC(=O)Nc1ccc(CC#N)cc1)c1ccc(C23CC4CC(CC(C4)C2)C3)cc1,–,"35.5 µM [rising, single point]"
CCN1/C(=C/c2ccc3cc(C)cc(C)c3[n+]2CC)Sc2cc(C)ccc21,–,"2.82 µM [rising, partial curve]"
COc1ccc(OC)c(C(=O)N2CCC(C(=O)c3ccc(F)cc3)CC2)c1,–,"20 µM [rising, single point]"
CCC1CN(S(=O)(=O)c2ccc3c(c2)NC(=O)CC(=O)N3)c2cc(Cl)ccc2O1 (stereo not given),"44.7 µM [rising, partial curve, poor fit]",–
CCc1n(CC(O)COCC2CC=CCC2)c2ccccc2[n+]1C (stereo not given),"17.8 µM [falling, single point]","12.6 µM [falling, partial curve]"
Cc1ccc(N2C(=O)CS(=O)(=O)CC2=O)cc1,–,"4.47 µM [rising, full curve, poor fit]"
CCC(=O)O[C@@]1(C(=O)CCl)[C@@H](C)C[C@@H]2[C@H]3CCC4=CC(=O)C=C[C@@]4(C)[C@]3(F)[C@@H](O)C[C@@]21C,"7.94 µM [falling, single point]","14.1 µM [falling, partial curve, poor fit]"
CN(Cc1c(F)cccc1Cl)C(=O)c1cc2ccccc2o1,"4.47 µM [falling, full curve, poor fit]",–
COc1ccccc1Cc1nc2ccccc2nc1SCC(=O)Nc1ccccc1C(F)(F)F,"0.708 µM [rising, full curve, poor fit]",–
CC(=O)c1ccc(COC(=O)c2ccccc2NC(=O)C(C)C)cc1,"3.55 µM [falling, full curve, poor fit]","3.16 µM [falling, full curve]"

# Whole records, looked up by structure.
# CCC(=O)O[C@@]1(C(=O)CCl)[C@@H](C)C[C@@H]2[C@H]3CCC4=CC(=O)C=C[C@@]4(C)[C@]3(F)[C@@H](O)C[C@@]21C in the list: AC50 [1]: 7.94 µM [falling, single point]; AC50 [2]: 14.1 µM [falling, partial curve, poor fit]
# CCc1ccc(S(=O)(=O)/N=C2/C=C(Sc3ncn[nH]3)C(=O)c3ccccc32)cc1 in the list: AC50 [1]: 3.98 µM [falling, full curve]; AC50 [2]: 4.47 µM [falling, full curve]

# Next structures

Structure (SMILES),AC50 [1],AC50 [2]
COCCn1nnnc1C(c1cccs1)N1CCN(c2ccccc2)CC1 (stereo not given),"12.6 µM [rising, single point]",–
CCNC(=S)N1CCN(S(=O)(=O)c2ccccc2C(F)(F)F)CC1,"0.02 µM [falling, full curve, poor fit]",–
CC(=O)Nc1ccc(S(=O)(=O)N2CCC(n3cnc4cc(F)ccc43)CC2)cc1,"15.8 µM [rising, partial curve, poor fit]","22.4 µM [rising, single point]"
O=C(NCCCN1CCOCC1)c1ccc(Cl)c(S(=O)(=O)N2CCCCCC2)c1,–,"35.5 µM [rising, single point]"
[N-]=[N+]=Nc1ccc(C(=O)CSC[C@H](NC(=O)CC[C@H](N)C(=O)O)C(=O)NCC(=O)O)cc1,"5.01 µM [rising, partial curve]","2.82 µM [rising, partial curve]"
COC(=O)c1ccc(CSc2ncn[nH]2)o1,–,"12.6 µM [falling, single point]"
CC(=O)NC(Cc1ccccc1)C(=O)OCC(=O)c1ccc(Br)cc1 (stereo not given),–,"0.0891 µM [rising, full curve, poor fit]"
CC(C)c1noc2ncc(C(=O)c3cc(Cl)cc(Cl)c3O)cc12,–,"14.1 µM [rising, single point]"
COc1ccc(C2Cc3ccccc3C(=O)O2)cc1 (stereo not given),"35.5 µM [rising, single point]",–
CCc1noc(C)c1C(=O)N1CCCC(C(=O)c2ccc(OC)c(F)c2)C1 (stereo not given),"8.91 µM [falling, partial curve, poor fit]","7.08 µM [falling, full curve, poor fit]"
O=C(NC1CCCCC1)C(c1cccnc1)N(C(=O)CCl)c1ccccc1Cl (stereo not given),–,"11.2 µM [rising, partial curve]"
Cc1nc2cc(-c3cccc(F)c3)nn2c(C)c1CCC(=O)NC(C)c1ccc2c(c1)OCCO2 (stereo not given),"5.62 µM [rising, full curve, poor fit]","11.2 µM [rising, partial curve, poor fit]"
CCC(C)COC(=O)C(C#N)c1nc2ccccc2nc1N1CCCCC1 (stereo not given),–,"17.8 µM [rising, partial curve]"
CC1CCc2c(C(=O)NCc3cccnc3)csc2C1 (stereo not given),–,"11.2 µM [rising, partial curve]"
C=CCc1cccc(CNc2nc3ccccc3n2CC)c1O,"35.5 µM [falling, single point]",–
COc1cc(OC)cc(C(=O)N(Cc2nc(-c3cccc(C)c3)no2)C(C)C)c1,–,"35.5 µM [rising, single point]"
COc1cc(CC(=O)Nc2nccs2)cc(OC)c1OC,–,"17.8 µM [rising, single point]"
